# How the values were obtained:
# [1] = general procedure: Fmoc solid-phase peptide synthesis; Rink Amide MBHA resin; PyBOP, DIPEA; settings: for conjugation yield: conjugation step; for step yield: late stage modification step
# [2] = general procedure: Fmoc solid-phase peptide synthesis; Rink Amide MBHA; PyBOP, DIPEA; settings: whole synthesis
Substance,conjugation yield [1],step yield [1],other results
DTPA-Lys(FITC)-Lys(PEG8)-βAla-Cys,11.6% yield,,
DTPA-Lys(FITC)-Lys(Alkyne)-βAla-Cys(NHS^a),,71% yield,
DTPA-Lys(FITC)-Lys(Alkyne)-βAla-Cys,,34% yield,
DTPA-Lys(FITC)-Lys(PEG8-N3)-βAla-Cys(MAL^a),20% yield,,
DTPA-Lys(FITC)-Lys(H)-βAla-Cys(H)—NH2,,,isolated yield [2]: 87% yield

# Source: patent publication US8546531B2 (The General Hospital Corporation, priority 2008, dated 2013)
